Reference: doi:10.1101/2023.12.06.570334
These are yes or no findings as the source states them, for the method shown. Binding seen in cells or lysates may run through a third protein. These calls come from enrichment with a bait or labelling near it, and not all partners need be listed.

Chains of the proteins cited; added tags and fusions are not shown.
UniProt Q9JI91, whole entry: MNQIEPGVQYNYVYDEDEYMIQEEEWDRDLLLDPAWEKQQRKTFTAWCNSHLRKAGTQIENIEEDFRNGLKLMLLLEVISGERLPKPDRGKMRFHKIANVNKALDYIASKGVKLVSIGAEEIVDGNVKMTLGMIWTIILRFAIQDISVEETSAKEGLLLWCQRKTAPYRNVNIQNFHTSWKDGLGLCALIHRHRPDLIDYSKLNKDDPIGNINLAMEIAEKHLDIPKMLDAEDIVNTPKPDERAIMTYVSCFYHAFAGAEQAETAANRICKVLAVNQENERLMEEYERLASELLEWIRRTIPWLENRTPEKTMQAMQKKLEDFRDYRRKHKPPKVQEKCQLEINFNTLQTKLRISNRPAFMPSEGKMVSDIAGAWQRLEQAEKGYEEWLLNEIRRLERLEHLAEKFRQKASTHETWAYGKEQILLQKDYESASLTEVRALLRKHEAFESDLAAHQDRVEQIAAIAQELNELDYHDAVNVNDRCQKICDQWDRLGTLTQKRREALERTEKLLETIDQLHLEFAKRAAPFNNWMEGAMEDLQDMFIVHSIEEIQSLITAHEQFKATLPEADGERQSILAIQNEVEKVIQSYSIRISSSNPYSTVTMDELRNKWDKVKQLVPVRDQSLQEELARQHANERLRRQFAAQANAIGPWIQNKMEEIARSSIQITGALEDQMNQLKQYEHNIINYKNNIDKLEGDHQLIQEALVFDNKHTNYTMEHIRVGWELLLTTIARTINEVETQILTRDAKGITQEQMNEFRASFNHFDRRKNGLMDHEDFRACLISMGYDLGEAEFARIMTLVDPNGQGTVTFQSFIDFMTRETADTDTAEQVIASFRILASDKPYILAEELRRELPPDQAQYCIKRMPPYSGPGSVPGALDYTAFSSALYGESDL

Target: ACTN2-BioID2 fusion protein (α-actinin-2 fused to BioID2-HA) (UniProt Q9JI91)
Experiment: proximity labelling

Row | Molecule | binding
1 | DPYSL3 (from UniProt Q62188 1-570) | binds
2 | PCBP1 (from UniProt P60335 1-356) | binds
3 | VCP (from UniProt Q01853 1-806) | binds
4 | palmdelphin (PALMD), endogenous (protein, UniProt Q9JHU2 1-551) MEEAELVKGRLQAITDKRKIQEEISQKRLKIEEEKLKHQHLKKKALREKWLLDGIGSGKEHEEMRKQNQQDQHQTQVLEQSILRLEKEIQDLEKAELQISANEEAILKKLKSIEKTTEDIIRSVKVEKEENPEESIEDIYANIPDLPSSYIPSRLRKERNEGPDDEQNRKALYAMEIKVEKDLKTGESVVLSSIPLPSDDFKSTGIKVYEDRQKSVYAVSSNQNTTYNGTDGLAPVEVEDLLRQASERNSKSPTEYHEPVYANPFCRPVTPQRERVISPGPNFQERIMMKTNGLGNHANESAHNMTDGLSERRSNGPTHTSPTRPTPQPRSMVQQVEEMVHTQQKRMASPWEESSNRQNEHEVSPRMELSPSRASPGKSGPQCSSPTCQEETEDVRYNIVHSLPSDVDDTEPVTMIFMGYQQADDNEEEKKLLTGYDGVIHAELVVIDDEAEDNEGQTERPSYHPVAPYNQVYQPPKPTPLPRKRAEVRPYENTNHKSPHKNSISLKEQEERLGSPARHSPLDVPVAGDGTEDPSLTALRIRMAKLGKKVI | binds
5 | PEBP1 (protein, UniProt P70296 1-187) MAADISQWAGPLCLQEVDEPPQHALRVDYAGVTVDELGKVLTPTQVMNRPSSISWDGLDPGKLYTLVLTDPDAPSRKDPKFREWHHFLVVNMKGNDISSGTVLSDYVGSGPPSGTGLHRYVWLVYEQEQPLSCDEPILSNKSGDNRGKFKVETFRKKYNLGAPVAGTCYQAEWDDYVPKLYEQLSGK | binds
